Test results from the supplement of paper PMC10849652.
The other results are listed elsewhere or left out.

Protein sequences, listed by entry. Tags and fused reporters are not part of them. Lines headed by an entry give the natural chain unless they say otherwise; changes in a name come on top.
UniProt Q9Y6M4: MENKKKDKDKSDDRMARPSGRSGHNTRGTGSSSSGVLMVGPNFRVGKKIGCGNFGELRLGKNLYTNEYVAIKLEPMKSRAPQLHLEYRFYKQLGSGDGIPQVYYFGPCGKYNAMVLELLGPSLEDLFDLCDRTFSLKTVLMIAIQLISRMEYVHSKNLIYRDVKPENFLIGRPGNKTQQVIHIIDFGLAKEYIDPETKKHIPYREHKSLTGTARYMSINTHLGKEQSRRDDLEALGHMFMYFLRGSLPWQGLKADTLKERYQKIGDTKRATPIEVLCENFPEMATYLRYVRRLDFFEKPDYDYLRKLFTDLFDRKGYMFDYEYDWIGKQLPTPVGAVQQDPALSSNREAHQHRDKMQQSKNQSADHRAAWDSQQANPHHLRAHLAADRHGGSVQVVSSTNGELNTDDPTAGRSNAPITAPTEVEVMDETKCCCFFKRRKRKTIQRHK
UniProt Q49B96: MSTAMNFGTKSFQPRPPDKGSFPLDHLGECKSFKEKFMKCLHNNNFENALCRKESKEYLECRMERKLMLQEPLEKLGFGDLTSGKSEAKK
UniProt Q9UBL6: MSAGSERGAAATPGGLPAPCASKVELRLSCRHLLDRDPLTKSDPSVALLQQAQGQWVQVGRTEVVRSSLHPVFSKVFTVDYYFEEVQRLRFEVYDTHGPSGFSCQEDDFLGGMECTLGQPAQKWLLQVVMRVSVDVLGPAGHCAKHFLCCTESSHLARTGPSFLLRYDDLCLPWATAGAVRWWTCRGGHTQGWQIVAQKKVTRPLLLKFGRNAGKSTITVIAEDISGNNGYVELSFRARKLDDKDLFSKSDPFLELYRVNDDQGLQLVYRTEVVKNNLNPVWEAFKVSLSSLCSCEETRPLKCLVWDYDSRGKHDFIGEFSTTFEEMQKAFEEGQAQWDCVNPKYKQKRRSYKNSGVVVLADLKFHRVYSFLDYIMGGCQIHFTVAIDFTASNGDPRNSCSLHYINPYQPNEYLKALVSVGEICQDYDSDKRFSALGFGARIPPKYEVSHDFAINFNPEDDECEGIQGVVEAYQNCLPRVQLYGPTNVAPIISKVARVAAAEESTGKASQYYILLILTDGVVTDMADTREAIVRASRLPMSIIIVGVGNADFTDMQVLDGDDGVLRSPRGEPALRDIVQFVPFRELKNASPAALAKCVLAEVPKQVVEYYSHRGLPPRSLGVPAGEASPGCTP
UniProt Q86X83, whole entry, looked up: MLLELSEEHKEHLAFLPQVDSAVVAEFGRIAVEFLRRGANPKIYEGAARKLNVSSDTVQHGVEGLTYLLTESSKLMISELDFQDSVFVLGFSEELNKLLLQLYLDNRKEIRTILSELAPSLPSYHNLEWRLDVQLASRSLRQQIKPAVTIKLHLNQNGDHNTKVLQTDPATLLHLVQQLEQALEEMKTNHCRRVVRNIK
UniProt P08123: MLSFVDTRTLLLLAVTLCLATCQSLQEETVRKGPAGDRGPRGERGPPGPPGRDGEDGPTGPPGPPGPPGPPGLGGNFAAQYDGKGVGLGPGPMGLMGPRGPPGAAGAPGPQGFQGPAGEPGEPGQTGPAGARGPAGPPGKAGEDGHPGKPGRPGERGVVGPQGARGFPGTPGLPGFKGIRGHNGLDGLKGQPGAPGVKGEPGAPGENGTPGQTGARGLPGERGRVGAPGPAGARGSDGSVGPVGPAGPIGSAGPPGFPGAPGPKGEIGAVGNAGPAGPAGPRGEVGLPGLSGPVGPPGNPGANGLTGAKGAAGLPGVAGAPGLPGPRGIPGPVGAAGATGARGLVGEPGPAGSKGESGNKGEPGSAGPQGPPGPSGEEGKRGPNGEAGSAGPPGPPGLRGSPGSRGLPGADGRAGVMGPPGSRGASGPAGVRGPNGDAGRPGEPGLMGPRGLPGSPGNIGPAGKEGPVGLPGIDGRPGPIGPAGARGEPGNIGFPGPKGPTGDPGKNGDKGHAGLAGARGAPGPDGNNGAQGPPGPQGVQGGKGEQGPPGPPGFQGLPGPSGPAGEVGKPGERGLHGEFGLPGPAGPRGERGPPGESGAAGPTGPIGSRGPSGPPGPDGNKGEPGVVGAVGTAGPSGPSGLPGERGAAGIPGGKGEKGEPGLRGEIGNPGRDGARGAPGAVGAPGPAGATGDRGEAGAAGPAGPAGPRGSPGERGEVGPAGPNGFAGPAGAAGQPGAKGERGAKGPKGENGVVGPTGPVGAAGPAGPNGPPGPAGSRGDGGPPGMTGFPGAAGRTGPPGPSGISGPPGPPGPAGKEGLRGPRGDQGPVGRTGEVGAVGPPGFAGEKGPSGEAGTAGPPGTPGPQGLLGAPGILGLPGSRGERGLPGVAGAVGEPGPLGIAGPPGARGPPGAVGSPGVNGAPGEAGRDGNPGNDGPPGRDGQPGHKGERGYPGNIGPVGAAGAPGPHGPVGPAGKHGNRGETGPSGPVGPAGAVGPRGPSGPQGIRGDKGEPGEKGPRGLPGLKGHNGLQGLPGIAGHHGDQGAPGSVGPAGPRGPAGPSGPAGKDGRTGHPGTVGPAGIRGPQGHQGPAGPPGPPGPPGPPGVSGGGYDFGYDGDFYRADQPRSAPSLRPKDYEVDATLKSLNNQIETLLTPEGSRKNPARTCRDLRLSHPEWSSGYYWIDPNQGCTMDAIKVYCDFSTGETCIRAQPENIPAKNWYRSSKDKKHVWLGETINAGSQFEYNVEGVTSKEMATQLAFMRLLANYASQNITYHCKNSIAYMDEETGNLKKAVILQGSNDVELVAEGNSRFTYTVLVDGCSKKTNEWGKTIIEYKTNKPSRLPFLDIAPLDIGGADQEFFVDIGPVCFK
UniProt P57737: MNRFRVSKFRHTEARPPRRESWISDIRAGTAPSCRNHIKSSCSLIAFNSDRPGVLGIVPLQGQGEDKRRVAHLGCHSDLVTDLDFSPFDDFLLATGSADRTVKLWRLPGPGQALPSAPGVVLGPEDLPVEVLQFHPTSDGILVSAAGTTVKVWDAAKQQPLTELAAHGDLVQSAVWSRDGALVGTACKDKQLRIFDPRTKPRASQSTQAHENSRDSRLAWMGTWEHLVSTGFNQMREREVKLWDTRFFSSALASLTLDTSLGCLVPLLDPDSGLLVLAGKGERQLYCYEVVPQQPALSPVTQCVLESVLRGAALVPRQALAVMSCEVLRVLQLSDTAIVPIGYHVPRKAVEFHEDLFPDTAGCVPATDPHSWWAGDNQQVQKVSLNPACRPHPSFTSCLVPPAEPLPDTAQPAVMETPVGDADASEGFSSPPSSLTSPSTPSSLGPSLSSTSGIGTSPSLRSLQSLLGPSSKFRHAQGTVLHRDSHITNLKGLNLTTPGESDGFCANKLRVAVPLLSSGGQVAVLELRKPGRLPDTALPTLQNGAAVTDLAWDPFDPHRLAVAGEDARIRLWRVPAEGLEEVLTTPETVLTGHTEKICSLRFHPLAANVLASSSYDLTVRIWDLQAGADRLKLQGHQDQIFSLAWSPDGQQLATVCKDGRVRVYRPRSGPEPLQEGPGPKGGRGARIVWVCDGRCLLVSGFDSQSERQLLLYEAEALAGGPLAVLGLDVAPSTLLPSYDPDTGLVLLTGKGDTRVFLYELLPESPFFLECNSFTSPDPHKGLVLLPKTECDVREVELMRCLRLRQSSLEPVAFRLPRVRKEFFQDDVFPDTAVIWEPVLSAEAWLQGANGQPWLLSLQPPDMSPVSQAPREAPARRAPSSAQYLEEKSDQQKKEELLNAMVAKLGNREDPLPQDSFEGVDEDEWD
UniProt Q9BRF8, whole entry, looked up: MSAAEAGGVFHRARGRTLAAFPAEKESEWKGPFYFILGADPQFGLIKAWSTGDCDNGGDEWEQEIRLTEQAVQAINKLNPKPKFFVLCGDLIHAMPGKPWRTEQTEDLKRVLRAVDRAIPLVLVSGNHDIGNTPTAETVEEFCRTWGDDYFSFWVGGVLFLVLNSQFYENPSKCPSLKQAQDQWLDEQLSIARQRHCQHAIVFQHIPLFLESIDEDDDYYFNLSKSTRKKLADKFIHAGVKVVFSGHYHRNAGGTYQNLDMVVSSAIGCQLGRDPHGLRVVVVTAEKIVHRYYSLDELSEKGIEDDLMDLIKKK
UniProt P35606: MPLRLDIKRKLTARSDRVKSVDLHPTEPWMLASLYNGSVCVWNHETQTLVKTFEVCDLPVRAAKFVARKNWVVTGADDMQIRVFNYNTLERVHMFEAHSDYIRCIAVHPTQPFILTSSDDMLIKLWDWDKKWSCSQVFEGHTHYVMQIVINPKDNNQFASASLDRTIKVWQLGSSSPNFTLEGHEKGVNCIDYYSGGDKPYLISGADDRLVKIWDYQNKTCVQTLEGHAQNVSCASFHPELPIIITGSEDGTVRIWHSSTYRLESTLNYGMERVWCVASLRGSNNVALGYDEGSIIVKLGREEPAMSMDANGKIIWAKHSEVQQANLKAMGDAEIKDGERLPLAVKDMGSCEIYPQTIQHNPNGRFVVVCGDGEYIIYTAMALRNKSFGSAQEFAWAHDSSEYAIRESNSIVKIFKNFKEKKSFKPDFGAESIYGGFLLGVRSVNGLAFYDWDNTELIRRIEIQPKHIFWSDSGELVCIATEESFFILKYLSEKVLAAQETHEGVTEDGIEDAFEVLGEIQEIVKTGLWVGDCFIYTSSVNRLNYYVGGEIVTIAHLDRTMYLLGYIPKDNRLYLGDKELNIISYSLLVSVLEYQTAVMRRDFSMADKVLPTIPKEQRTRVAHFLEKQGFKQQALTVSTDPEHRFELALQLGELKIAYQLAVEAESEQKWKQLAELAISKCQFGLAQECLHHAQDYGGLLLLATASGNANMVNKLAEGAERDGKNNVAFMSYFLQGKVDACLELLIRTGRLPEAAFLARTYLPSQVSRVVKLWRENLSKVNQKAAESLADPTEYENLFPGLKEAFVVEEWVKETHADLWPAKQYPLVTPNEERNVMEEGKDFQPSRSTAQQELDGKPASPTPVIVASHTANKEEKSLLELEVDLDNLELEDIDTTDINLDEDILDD
UniProt P49747: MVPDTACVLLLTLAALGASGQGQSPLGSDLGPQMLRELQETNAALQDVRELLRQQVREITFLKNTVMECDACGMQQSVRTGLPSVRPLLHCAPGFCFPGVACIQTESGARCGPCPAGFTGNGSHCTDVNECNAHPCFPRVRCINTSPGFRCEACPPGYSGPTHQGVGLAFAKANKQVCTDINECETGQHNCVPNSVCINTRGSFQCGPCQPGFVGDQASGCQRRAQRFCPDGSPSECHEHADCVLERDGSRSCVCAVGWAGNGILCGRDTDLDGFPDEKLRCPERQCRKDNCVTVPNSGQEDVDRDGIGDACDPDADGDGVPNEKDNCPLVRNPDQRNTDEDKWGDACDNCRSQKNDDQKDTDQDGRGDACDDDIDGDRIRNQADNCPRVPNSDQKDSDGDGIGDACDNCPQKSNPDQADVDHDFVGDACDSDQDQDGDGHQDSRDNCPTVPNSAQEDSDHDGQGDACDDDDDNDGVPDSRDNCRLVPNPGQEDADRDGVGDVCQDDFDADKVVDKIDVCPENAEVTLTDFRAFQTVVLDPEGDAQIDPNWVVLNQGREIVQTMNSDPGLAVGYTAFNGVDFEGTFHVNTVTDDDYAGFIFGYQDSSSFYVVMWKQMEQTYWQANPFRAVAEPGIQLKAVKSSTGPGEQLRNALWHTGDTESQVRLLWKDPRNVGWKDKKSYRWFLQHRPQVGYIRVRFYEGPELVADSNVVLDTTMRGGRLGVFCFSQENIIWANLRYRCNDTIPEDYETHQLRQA
UniProt P12074, whole entry, looked up: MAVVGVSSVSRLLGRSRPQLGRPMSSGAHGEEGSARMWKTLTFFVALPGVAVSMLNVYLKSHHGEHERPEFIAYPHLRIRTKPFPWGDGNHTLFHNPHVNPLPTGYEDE
UniProt Q8NHY2, whole entry, looked up: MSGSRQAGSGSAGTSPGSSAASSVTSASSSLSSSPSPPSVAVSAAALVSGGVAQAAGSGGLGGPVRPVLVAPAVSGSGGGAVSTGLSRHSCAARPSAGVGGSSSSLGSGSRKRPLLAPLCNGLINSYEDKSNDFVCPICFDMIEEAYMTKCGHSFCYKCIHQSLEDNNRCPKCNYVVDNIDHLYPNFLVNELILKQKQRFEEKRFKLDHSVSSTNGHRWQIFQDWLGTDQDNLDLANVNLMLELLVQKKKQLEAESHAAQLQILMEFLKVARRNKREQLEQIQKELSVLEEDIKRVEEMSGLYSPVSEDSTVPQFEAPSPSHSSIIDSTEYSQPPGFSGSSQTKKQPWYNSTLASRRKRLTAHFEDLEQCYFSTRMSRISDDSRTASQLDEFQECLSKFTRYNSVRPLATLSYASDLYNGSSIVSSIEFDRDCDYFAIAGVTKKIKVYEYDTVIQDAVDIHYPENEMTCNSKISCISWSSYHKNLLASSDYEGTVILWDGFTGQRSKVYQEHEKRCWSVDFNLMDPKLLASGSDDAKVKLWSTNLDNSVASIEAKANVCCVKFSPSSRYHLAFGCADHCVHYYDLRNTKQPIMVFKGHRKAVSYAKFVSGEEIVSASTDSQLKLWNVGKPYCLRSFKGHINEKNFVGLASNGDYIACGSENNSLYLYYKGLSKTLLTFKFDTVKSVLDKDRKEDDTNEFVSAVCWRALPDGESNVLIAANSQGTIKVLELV

Experiments:
Assay in all cases: log2 fold change, soluble protein after heating vs DMSO (PISA); higher = thermal stabilisation; K562 cells, 10 uM, 30 min; active = over 0.2 and 3.5 SD of the protein, either way, in both replicates (recomputed)
[1] = compound: C1=CC=C(C=C1)[C@H](COC2=CC3=C(C=C2)NC(=O)N3)NC(=O)C4=CC=CN(C4=O)CC5=CC(=C(C=C5)F)F
How it was run: (§1)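 Thermal stability values are relative to control samples and come from duplicates. They are expressed as log2 fold changes. For measurement, K562 cells (2×10^6 cells/mL) received 10 μM compound for 30 min, and aliquots were heated for 3 min over 48°C-58°C, pooled, and extracted at 4°C in PBS with 0.5% NP-40. Soluble protein, the supernatant after 21,000xg for 90 min, was quantified by TMTpro 16plex LC-MS/MS with equalised channel sums.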

[2] = compound: CC1=C(SC2=C1C(=N[C@H](C3=NN=C(N32)C)CC(=O)N)C4=CC=C(C=C4)Cl)C
How it was run: as §1

[3] = compound: CC1=C2C(=CC=C1)N=C(N(C2=O)C3=CC=CC=C3C)CN4C=NC5=C(N=CN=C54)N
How it was run: as §1

[4] = compound: Cc1sc2c(c1C)C(c1ccc(Cl)cc1)=N[C@@H](CC(=O)OC(C)(C)C)c1nnc(C)n1-2
How it was run: as §1

[5] = compound: c1ccc([C@@H]2C[C@H]2NC2CCNCC2)cc1
How it was run: as §1

Measured: log2 fold change

CPD (UniProt O75976)
inactive: [1] 0.008 | [2] 0.014 | [3] 0.044 | [4] -0.013 | [5] 0.053

CSNK1G3 (UniProt Q9Y6M4)
inactive: [1] 0.054 | [2] -0.074 | [3] 0.049 | [4] 0 | [5] -0.058

COX19 (UniProt Q49B96)
inactive: [1] -0.014 | [2] 0.002 | [3] 0.02 | [4] -0.062 | [5] -0.003

CPNE7 (UniProt Q9UBL6)
inactive: [1] 0.001 | [2] 0.103 | [3] 0.084 | [4] -0.031 | [5] -0.043

Looked up one by one from the entries so far (2):
COX19 (UniProt Q49B96)
inactive: [1] -0.014 | [2] 0.002 | [3] 0.02 | [4] -0.062 | [5] -0.003

CPNE7 (UniProt Q9UBL6)
inactive: [1] 0.001 | [2] 0.103 | [3] 0.084 | [4] -0.031 | [5] -0.043

More results.

COMMD2 (UniProt Q86X83)
inactive: [1] -0.029 | [2] 0.053 | [3] 0 | [4] -0.199 | [5] 0.04

CSNK2A1 (UniProt P68400)
inactive: [1] 0.018 | [2] 0.033 | [3] 0.018 | [4] -0.008 | [5] 0.02

COLGALT1 (UniProt Q8NBJ5)
inactive: [1] 0.029 | [2] -0.062 | [3] -0.034 | [4] -0.013 | [5] -0.019

COL1A2 (UniProt P08123)
inactive: [1] 0.133 | [2] -0.042 | [3] 0.134 | [4] 0.06 | [5] 0.051

COMMD9 (UniProt Q9P000)
inactive: [1] -0.088 | [2] 0.145 | [3] -0.011 | [4] -0.076 | [5] -0.092

CRYM-AS1 (UniProt A6NIL9)
inactive: [1] -0.295 | [2] 0.037 | [3] 0.297 | [4] -0.201 | [5] -0.002

COPS3 (UniProt Q9UNS2)
inactive: [1] 0.011 | [2] 0.001 | [3] 0 | [4] -0.007 | [5] -0.005

COPE (UniProt O14579)
inactive: [1] -0.045 | [2] 0.033 | [3] 0.001 | [4] 0.159 | [5] 0.038

CORO7 isoform 3 (UniProt P57737)
inactive: [1] -0.024 | [2] -0.017 | [3] 0.015 | [4] 0.01 | [5] -0.001

CORO1A (UniProt P31146)
inactive: [1] 0.007 | [2] 0.065 | [3] 0.045 | [4] -0.024 | [5] -0.04

CPPED1 (UniProt Q9BRF8)
inactive: [1] -0.063 | [2] -0.009 | [3] 0.016 | [4] 0.018 | [5] 0.012

CREM isoform 1 (UniProt Q03060)
inactive: [1] 0.131 | [2] 0.066 | [3] 0.032 | [4] 0.187 | [5] -0.151

COPB2 (UniProt P35606)
inactive: [1] -0.01 | [2] 0.062 | [3] 0.016 | [4] -0.005 | [5] -0.027

CPNE1 (UniProt Q99829)
inactive: [1] -0.013 | [2] -0.005 | [3] 0.003 | [4] 0.022 | [5] 0.016

CSNK1A1 (UniProt P48729)
inactive: [1] 0.048 | [2] 0 | [3] 0.008 | [4] 0.046 | [5] 0.02

CREBBP (UniProt Q92793)
inactive: [1] -0.019 | [2] 0.081 | [3] 0.003 | [4] -0.009 | [5] -0.019

CPSF1 (UniProt Q10570)
inactive: [1] -0.012 | [2] -0.049 | [3] -0.017 | [4] 0.132 | [5] 0.006

COMP (UniProt P49747)
inactive: [1] 0.03 | [2] -0.21 | [4] -0.135 | [5] 0.134

COMTD1 (UniProt Q86VU5)
inactive: [1] -0.048 | [2] 0.027 | [3] 0.087 | [4] -0.026 | [5] -0.023

COX6A1 (UniProt P12074)
inactive: [1] 0.101 | [2] 0.077 | [3] 0.105 | [4] -0.195 | [5] 0.05

COP1 (UniProt Q8NHY2)
inactive: [2] -0.069 | [5] -0.102
